For eight substances, binding results are on record in publication PMC5342150, “PRMT5 competitively binds to CDK4 to promote G1-S transition upon glucose induction in hepatocellular carcinoma” (Oncotarget, 2016).

Chains of the proteins cited; added tags and fusions are not shown. Lines headed by an entry give the natural chain unless they say otherwise; changes in a name come on top. A line that says so, or that is headed by a name, gives the form on record, which may keep a tag or linker. Residues count along the entry.
UniProt O14744: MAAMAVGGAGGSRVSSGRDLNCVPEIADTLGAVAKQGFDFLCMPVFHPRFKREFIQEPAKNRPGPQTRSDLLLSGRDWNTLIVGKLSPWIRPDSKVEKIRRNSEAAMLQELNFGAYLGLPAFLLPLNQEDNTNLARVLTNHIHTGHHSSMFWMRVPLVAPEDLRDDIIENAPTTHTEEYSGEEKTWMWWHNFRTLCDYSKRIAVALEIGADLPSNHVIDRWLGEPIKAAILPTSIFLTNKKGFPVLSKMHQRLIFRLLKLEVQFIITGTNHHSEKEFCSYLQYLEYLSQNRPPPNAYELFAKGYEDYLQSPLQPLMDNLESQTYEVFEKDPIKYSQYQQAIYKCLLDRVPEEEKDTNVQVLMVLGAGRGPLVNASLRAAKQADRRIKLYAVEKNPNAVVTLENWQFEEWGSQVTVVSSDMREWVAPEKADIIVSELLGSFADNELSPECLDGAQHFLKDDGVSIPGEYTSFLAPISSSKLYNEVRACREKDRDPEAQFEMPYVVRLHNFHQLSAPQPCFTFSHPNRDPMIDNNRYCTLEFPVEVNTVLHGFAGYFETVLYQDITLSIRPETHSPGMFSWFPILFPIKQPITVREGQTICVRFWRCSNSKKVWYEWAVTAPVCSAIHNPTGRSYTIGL
UniProt P11802: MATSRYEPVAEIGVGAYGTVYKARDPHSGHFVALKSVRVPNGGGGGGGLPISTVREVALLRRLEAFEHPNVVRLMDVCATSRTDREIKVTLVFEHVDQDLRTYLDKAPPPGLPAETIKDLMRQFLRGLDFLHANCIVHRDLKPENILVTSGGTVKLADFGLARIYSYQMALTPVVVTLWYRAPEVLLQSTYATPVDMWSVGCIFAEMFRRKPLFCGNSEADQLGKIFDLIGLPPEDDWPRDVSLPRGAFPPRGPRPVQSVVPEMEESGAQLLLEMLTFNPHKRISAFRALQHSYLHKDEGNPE
GST-fused CDK4 1-70 aa: residues 1-70 of P11802
Flag-tagged CDK4 Δ50-56 (P11802-1, form named): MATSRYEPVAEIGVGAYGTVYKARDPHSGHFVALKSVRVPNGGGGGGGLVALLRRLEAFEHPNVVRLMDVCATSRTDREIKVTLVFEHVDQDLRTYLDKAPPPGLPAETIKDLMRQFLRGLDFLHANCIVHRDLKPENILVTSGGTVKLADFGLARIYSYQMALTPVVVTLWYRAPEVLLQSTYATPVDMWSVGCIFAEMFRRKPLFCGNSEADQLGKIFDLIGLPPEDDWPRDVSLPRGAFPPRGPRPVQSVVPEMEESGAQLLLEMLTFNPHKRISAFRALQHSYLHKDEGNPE
UniProt Q9BQA1: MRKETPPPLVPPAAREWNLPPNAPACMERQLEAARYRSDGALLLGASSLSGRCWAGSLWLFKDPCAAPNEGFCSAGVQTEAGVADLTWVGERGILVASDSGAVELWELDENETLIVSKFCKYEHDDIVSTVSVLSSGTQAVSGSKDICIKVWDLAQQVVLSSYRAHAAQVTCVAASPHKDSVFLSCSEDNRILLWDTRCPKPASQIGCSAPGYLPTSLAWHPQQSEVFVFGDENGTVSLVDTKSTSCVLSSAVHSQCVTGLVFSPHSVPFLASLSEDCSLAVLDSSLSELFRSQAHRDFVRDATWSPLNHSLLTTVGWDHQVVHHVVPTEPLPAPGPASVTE
UniProt P24385: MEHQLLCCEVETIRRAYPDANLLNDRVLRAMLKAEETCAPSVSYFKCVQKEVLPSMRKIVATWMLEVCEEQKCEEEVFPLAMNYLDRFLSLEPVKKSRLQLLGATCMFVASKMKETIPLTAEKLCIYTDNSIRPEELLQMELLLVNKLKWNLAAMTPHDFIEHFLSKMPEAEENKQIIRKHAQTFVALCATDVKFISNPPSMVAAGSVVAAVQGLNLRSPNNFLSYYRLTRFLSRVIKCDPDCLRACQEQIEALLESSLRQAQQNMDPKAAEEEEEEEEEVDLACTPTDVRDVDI

The target in one test is HA-tagged PRMT5 (human) (UniProt O14744). As to the kind of experiment: co-IP; HEK293T cells transfected with the tagged proteins for 48 h; extracts incubated with antibody-bound Protein A/G or anti-Flag M2 affinity gel for 3 h at 4°C; washed three times with IP buffer; Western blot.
For test [1], the target named is GST-fused CDK4 full-length (1-303 aa) (human) (UniProt P11802). Nature of the test: pull-down; GST fusion proteins on glutathione-Sepharose 4B beads mixed with HEK293T cell lysis solution holding the overexpressed tagged PRMT5 for 3 h at 4°C; washed five times with IP buffer; Western blot; only the target purified.
The target in test [2] is Flag-tagged PRMT5 (human) (UniProt O14744). As to the kind of experiment: co-IP; co-IP in the absence of anti-Flag antibody: endogenous proteins (Supplementary Figure S3A) and Flag-PRMT5 with HA-CDK4 (Supplementary Figure S3B).
The target of test [3] is Flag-tagged CDK4 (human) (UniProt P11802). Nature of the test: co-IP; HepG2 cells co-transfected for 24 h in normal conditions, then cultured in no/low/high glucose media for 24 h; Western blot.
The target is the same in test [4]. As to the kind of experiment: co-IP; HEK293T cells transfected with the tagged proteins for 48 h; extracts incubated with antibody-bound Protein A/G or anti-Flag M2 affinity gel for 3 h at 4°C; washed three times with IP buffer; Western blot.
Test [5] has as its target GST-fused CDK4 1-70 aa (human) (UniProt P11802). Nature of the test: pull-down; GST fusion proteins on glutathione-Sepharose 4B beads mixed with HEK293T cell lysis solution holding the overexpressed tagged PRMT5 for 3 h at 4°C; washed five times with IP buffer; Western blot; only the target purified.
Test [6] concerns the target Flag-tagged CDK4 Δ50-56 (human) (UniProt P11802). Nature of the test: co-IP; HEK293T cells transfected with the tagged proteins for 48 h; extracts incubated with antibody-bound Protein A/G or anti-Flag M2 affinity gel for 3 h at 4°C; washed three times with IP buffer; Western blot.
The target of test [7] is Flag-tagged CDK4 R24A mutant (human) (UniProt P11802). Described as above.
Test [8] concerns the target Flag-tagged CDK4 (human) (UniProt P11802). Nature of the test: co-IP; HEK293T cells co-transfected with Flag-CDK4, Myc-6×His-p16^INK4a (or CCND1) and HA-PRMT5 (0, 0.4 or 4 μg) for 24 h, cultured in high/low glucose media for 24 h; immunoprecipitated with anti-Flag M2 affinity gel; Western blot.
The target of test [9] is endogenous CDK4 (human (endogenous in HEK293T)) (UniProt P11802). As to the kind of experiment: co-IP; co-IP in the absence of anti-Flag antibody: endogenous proteins (Supplementary Figure S3A) and Flag-PRMT5 with HA-CDK4 (Supplementary Figure S3B).

These are yes or no findings as the source states them, for the method shown. Binding seen in cells or lysates may run through a third protein. Some results given as binding are weak or reduced against the parent protein; the word gives no strength.

Consider “Flag-tagged CDK4 (from UniProt P11802-1 1-303) (enzyme)”, for which, in the test with HA-tagged PRMT5 (human), the binding result is given as “binds”.

For the substance “Flag-tagged PRMT5 (from UniProt O14744 1-637) (enzyme)”, in [1], the binding result is “binds”.

With “HA-CDK4 (from UniProt P11802-1 1-303) (enzyme)”, the binding entry in test [2] is given as “binds”.

Take HA-MEP50 (from UniProt Q9BQA1 1-342): the binding entry in the test with Flag-tagged CDK4 (human) [3] and with Flag-tagged CDK4 (human) [4] was “binds” in each case.

“HA-tagged PRMT5 (from UniProt O14744 1-637) (enzyme)”: the binding result in the test with Flag-tagged CDK4 (human) [3] is “binds”; in test [1], “binds”; in test [5], “binds”; with Flag-tagged CDK4 (human) [4] it was “binds”; in test [6], “binds”; in [7] it was “binds weakly”.

“Myc-6×His-tagged CCND1 (from UniProt P24385 1-295)”: the binding result in the test with Flag-tagged CDK4 (human) [8] was “binds”.

For the substance “endogenous CDK4 (from UniProt P11802-1 1-303) (enzyme)”, in the test with HA-tagged PRMT5 (human), the binding result is reported as “binds”.

As for “endogenous PRMT5 (from UniProt O14744 1-637) (enzyme)”, the binding result (in [9]; with Flag-tagged CDK4 (human) [4]) was “binds” each time.
